The text below walks through data of PubChem BioAssay AID445 (National Center for Advancing Translational Sciences (NCATS), 2006).

The list shows a part of the results. The main result of the screen is listed elsewhere. These columns were measured beside it and carry no call. The list favours compounds with an active or inconclusive main result. Words in brackets tell the shape of the fitted curve; partial curves, single points and poor fits give uncertain potencies.

This experiment is described as follows: IkB Signaling. The settings on record: ABC-DLBCL IkBa-CBG/CBR dual luciferase ratio (green luciferase fused to IkBa over red control in OCI-Ly3 lymphoma cells), 4 h; measured here: control luc red channel unless noted. A digest of the protocol: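 Curves were fitted separately to fusion (green), unfused (red) and ratio luminescence, then classed by r2, magnitude and activity. Cells: OCI-Ly3, 4 h compound plus doxycycline at 37C; 10 uM MG-132 defined full response.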
Regarding `COc1cccc2cc(C(=O)NCCc3c(C)[nH]c4ccc(F)cc34)c(=O)oc12`, the AC50 was 12.6 µM [falling, partial curve].
With `O=C(Nc1cccc(Br)c1)c1cc2ccccc2o1` the figure was 5.01 µM [falling, full curve]; with `COc1ccc(S(=O)(=O)N(CC(=O)Nc2cccnc2)c2ccc(Cl)cc2)cc1`, 15.8 µM [falling, partial curve].
With `Clc1cccc(-n2ncc3c(NCCCn4ccnc4)ncnc32)c1`, the AC50 was 15.8 µM [falling, partial curve].
As for `COc1ccc(NC(=O)Cn2c(=O)ccc3cc(S(=O)(=O)N4CCCC4)ccc32)cc1Cl`, the AC50 is 0.398 µM [falling, partial curve].
For the molecule `Cc1cccn2c(=O)c(C(=O)NCCc3ccc(S(N)(=O)=O)cc3)c(O)nc12`, the AC50 is 3.98 µM [rising, partial curve, poor fit].
For the molecule `O=C(CCOc1ccccc1)N(Cc1cccnc1)c1nc2c(F)cccc2s1`, the AC50 is 39.8 µM [falling, single point].
Consider `CCCCn1c(NCc2ccc(N(C)C)cc2)nc2ccccc21`, for which the AC50 is 25.1 µM [falling, partial curve].
The figure for `CCN1CCc2nc3sc(C(=O)c4ccc(F)cc4)c(N)c3cc2C1` is 1.26 µM [falling, full curve].
With `Cc1ccc(C(C)C)c(OCC(=O)Nc2ccc(Cl)cn2)c1` the figure was 7.94 µM [falling, partial curve]; with `COc1ccc(NC(=O)c2c(NCc3cccc(OC)c3)sc3c2CCCC3)cc1`, 10 µM [falling, partial curve].
Consider `Cc1ccc2occ(CC(=O)N(Cc3ccc(C(C)C)cc3)C3CCS(=O)(=O)C3)c2c1` (stereo not drawn), for which the AC50 is 31.6 µM [falling, single point].
For the molecule `O=C(CCC1N=C2c3ccccc3N=C(SCc3ccccc3F)N2C1=O)NCc1ccc(F)cc1` (stereo not drawn), the AC50 was 25.1 µM [falling, partial curve].
For `CCOC(=O)c1ccc(-n2[nH]c(-c3ccccc3)cc2=O)cc1`, the AC50 was 3.16 µM [falling, full curve].
For the molecule `Cc1ccc(-c2nc(N)n(C(=O)Cc3ccccc3)n2)cc1`, the AC50 is 39.8 µM [falling, single point].
`CC1=C(c2ccc(Cl)cc2)S(=O)(=O)N=C1N1CCC(C(=O)NCc2ccccc2F)CC1`: the AC50 is 15.8 µM [falling, partial curve].
With `CCCCCCOC(=O)Sc1nc2ccccc2o1`, the AC50 was 10 µM [falling, partial curve].
With `COc1ccc(CCNc2nc3c(-c4cccc(C)c4)nnn3c3ccccc23)cc1OC`, the AC50 was 1.26 µM [falling, full curve].
The figure for `O=C(Nc1ccc2c(c1)OCO2)C1CCN(Cc2cnn(-c3ccccc3)c2-n2cccc2)CC1` is 15.8 µM [falling, partial curve]; for `CCc1ccc(S(=O)(=O)c2nnn3c2nc(N2CCCC2)c2sccc23)cc1` it is 1.26 µM [rising, full curve].
With `Cc1ccccc1C1C=C(c2ccc(Cl)cc2)Nc2nnnn21` (stereo not drawn), the half-maximal activity concentration (AC50) was 39.8 µM [falling, single point].
For the molecule `Cc1nn(-c2ccc(N3CCCCC3)nn2)c(C)c1CCC(=O)NCc1ccccc1F`, the AC50 is 15.8 µM [falling, single point].
With `COc1ccc(-n2nc3c(N4CCCC(C(=O)NCCc5ccc(C)cc5)C4)nnc(C)c3c2C)cc1` (stereo not drawn), the AC50 is 7.94 µM [falling, partial curve].
Turning to `COCCNC(=O)C(=O)NCC(c1cccnc1)N1CCN(c2ccccc2F)CC1` (stereo not drawn), the AC50 was 25.1 µM [falling, single point].
For the molecule `COc1ccccc1Nc1nc2ccc(Cl)cc2nc1-n1nc(C)cc1C`, the AC50 was 15.8 µM [falling, partial curve, poor fit].
With `COc1ccc(NC(=O)c2nc3nc(C)cc(C(F)F)n3n2)c(C)c1` the figure was 10 µM [rising, partial curve]; with `CCOC(=O)c1ccc(NC(=O)CC2C(=O)N(c3ccc(F)cc3)C(=O)N2Cc2ccc3c(c2)OCO3)cc1` (stereo not drawn), 39.8 µM [falling, single point]; with `CCOC(=O)c1cccc(NC(=O)C2CCN(S(=O)(=O)c3cn(C)cn3)CC2)c1`, 12.6 µM [falling, partial curve].
With `COc1cc(-c2nnc(CSc3nc4ccccc4s3)o2)cc(OC)c1OC` the figure was 20 µM [falling, partial curve]; with `Cc1ccc(C)c(NS(=O)(=O)c2cc3c(cc2Cl)NC(=O)CO3)c1`, 2.51 µM [rising, partial curve].
As for `CCc1ccc(NC(=O)N2CC(C)Oc3ccc(C)cc32)cc1` (stereo not drawn), the AC50 is 10 µM [falling, partial curve].
In the case of `COCCCNc1ncnc2c1cnn2-c1ccc(F)cc1`, the AC50 was 0.794 µM [rising, full curve].
For `COc1cc2ccccc2cc1C(=O)Nc1ccc2oc(-c3cccc(Cl)c3Cl)nc2c1`, the AC50 is 0.316 µM [falling, full curve, poor fit].
As to `COc1cccc(-c2cc(C(=O)Nc3ccc(C)cc3)[nH]n2)c1`, the AC50 was 1.26 µM [falling, partial curve].
Turning to `Cc1cc(C)n(-c2nc3ccccc3nc2Nc2cc(C(=O)O)ccc2C)n1`, the AC50 was 3.16 µM [falling, partial curve].
Consider `O=C(Nc1ccc2c(c1)OCO2)C1CCN(C(=O)CSc2ncnc3ccccc23)CC1`, for which the half-maximal activity concentration (AC50) is 20 µM [falling, partial curve].
As for `Cc1ccc(CN2CCN(CC(=O)NCc3ccccc3Cl)C2=O)cc1`, the AC50 is 10 µM [falling, single point].
For the molecule `CC1CC(C)CN(C(=O)COC(=O)c2cc3ccccc3cc2O)C1` (stereo not drawn), the AC50 was 25.1 µM [falling, single point].
For `CCOc1ccc(C(=O)N2CCCCC2CCN2CCOCC2)cc1` (stereo not drawn), the AC50 is 1 µM [rising, partial curve].
As to `COc1ccc(NC(=O)c2sc3nc(C)c(C(=O)Nc4ccc(Cl)cc4)c(-c4ccc(Br)cc4)c3c2N)cc1`, the AC50 is 3.98 µM [falling, partial curve].
As to `O=C(c1ccc2c(c1)N(Cc1ccccc1)C(=O)c1ccccc1S2(=O)=O)N1CCN(c2ccccn2)CC1`, the AC50 was 39.8 µM [falling, single point].
Take `CCOC(=O)c1cccc(NS(=O)(=O)c2cn(C)c(C)n2)c1`: the AC50 is 0.0398 µM [rising, full curve, poor fit].
Regarding `COC(=O)c1ccccc1NC(=O)Cn1c(=O)n(-c2ccc(Cl)cc2)c(=O)c2c(C)c(C)sc21`, the AC50 was 0.501 µM [falling, full curve].
The figure for `Cc1ccc(NC(=O)CSc2nc3c([nH]c4ccccc43)c(=O)n2-c2ccccc2)c(C)c1` is 0.2 µM [falling, full curve].
Consider `Cc1ccc(N2CCN(C(=S)c3ccc(N(C)C)cc3)CC2)cc1`, for which the concentration at half-maximal activity (AC50) is 3.98 µM [falling, partial curve].
As for `COc1ccc(S(=O)(=O)Nc2cc3c(cc2NCc2ccccc2)n(C)c(=O)n3C)cc1OC`, the AC50 is 3.16 µM [rising, partial curve].
For the molecule `CCOc1ccc(C(=O)Nc2ccc3nc(SCc4ccccc4)sc3c2)cc1`, the AC50 was 20 µM [falling, partial curve].
The figure for `COc1ccccc1N1CCN(C(=O)Cn2c(=O)nc(-c3ccccc3)c3cc(Cl)ccc32)CC1` is 2.51 µM [falling, full curve, poor fit]; for `Cc1nc2c(-c3ccc(F)cc3)c(C)nn2c(C)c1CCC(=O)NCc1ccc(Cl)cc1` it is 0.251 µM [falling, full curve].
For `COc1ccccc1N1CCN(CC(O)COc2cc(C)cc(C)c2)CC1` (stereo not drawn), the AC50 was 7.94 µM [falling, partial curve].
Consider `COc1cccc(CNC(=O)CCCN2C(=O)CSc3c2c(C)nn3-c2ccccc2)c1`, for which the AC50 was 7.94 µM [falling, partial curve].
With `O=c1c2ccccc2n(Cc2cccc(F)c2)c(=O)n1Cc1ccccc1Cl` the figure was 0.794 µM [falling, full curve]; with `CCn1cc(C(=O)N2CCN(c3cc(C)ccc3C)CC2)c(=O)c2cc(S(=O)(=O)N(C)C3CCCCC3)ccc21`, 12.6 µM [falling, partial curve]; with `Cc1c(CNC(C)CCc2ccccc2)c(C(=O)O)c(C)n1Cc1ccc(F)cc1Cl` (stereo not drawn), 15.8 µM [falling, partial curve].
Consider `O=C(c1ccccc1Cl)n1nc(-c2cccnc2)nc1NCc1ccc(F)cc1`, for which the concentration at half-maximal activity (AC50) was 12.6 µM [falling, partial curve].
For the molecule `CCCCOc1ccc(C(=O)N(Cc2ccc(C(C)C)cc2)C2CCS(=O)(=O)C2)cc1` (stereo not drawn), the AC50 was 39.8 µM [falling, single point].
With `CCOC(=O)c1c(NC(=O)OC)sc(C(=O)N(CC)CC)c1C` the figure was 3.98 µM [rising, partial curve]; with `Cc1ccc2c(=O)cc(CSc3nnc(-c4ccccc4)n3C)[nH]c2c1C`, 31.6 µM [falling, partial curve].
`CCCNC(=O)c1cc(-c2ccco2)on1`: the AC50 was 39.8 µM [falling, single point].
For the molecule `CSc1nc2c(c(=O)n1C)SC(C)C2` (stereo not drawn), the AC50 is 25.1 µM [rising, partial curve].
With `COCCCNC(=O)c1sc2nc(C)c(C(=O)Nc3ccc(C)cc3C)c(-c3ccc(Cl)cc3)c2c1N` the figure was 12.6 µM [falling, partial curve]; with `CC(=O)Nc1ccc(S(=O)(=O)N2CCC(Oc3ccc(-n4cnnn4)cc3)CC2)cc1`, 25.1 µM [falling, partial curve].
As to `CCn1c(C(C#N)/C(=N\S(=O)(=O)c2cccs2)c2ccccc2)nc2ccccc21` (stereo not drawn), the AC50 is 20 µM [rising, partial curve] [measured here: IkB-luc green channel].
